About 7,700 (2.3%) of roughly 330,000 compounds were called active. Inconclusive means that the source gave no clear call. Such entries were picked first, then a sample of the others. The call rests on the fitted dose curve; in most records, active means well fitted inhibition curve with a large enough effect; inconclusive means small, poorly fitted or top-dose-only effect, or effect the other way; inactive means flat fitted curve, though single readings scatter. Where the call is inconclusive, the potency comes from a doubtful curve fit.
Assay: qHTS screen for small molecules that inhibit ELG1-dependent DNA repair in human embryonic kidney (HEK293T) cells expressing luciferase-tagged ELG1; further: nearly all actives have a fitted effect of over 55% in size
Details: HEK293T ELG1-luciferase reporter, luminescence, 16 h, DNA damage induced by 5-fluorouridine; series mostly up to 46.1 µM
In short: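 HEK293T cells expressing luciferase-tagged ELG1 (2,000/well) received 5-Fluorouridine plus compound or DMSO for 16 hr at 37 °C. Luciferase was read by ONE-Glo luminescence after 30 min at room temperature.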
For `O=C(CCC(=O)N1CCOc2ccccc21)Nc1ccccc1Br`, the Potency was inconclusive: 32.6 µM [activator, partial curve, poor fit]. For `COc1cc2c(c(OC)c1OC)-c1ccc(N(C)CC(OC)OC)c(=O)cc1[C@@H](NC(C)=O)CC2`, the Potency was inconclusive: 1.83 µM [inhibitor, partial curve, poor fit]. With `CCn1c(Cc2cccs2)nnc1SCC(=O)c1ccc(C)cc1` the Potency was inconclusive: 20.6 µM [activator, single point]. For `O=C(CSc1nnc(CNc2ccc(F)cc2)o1)N1c2ccccc2Sc2ccccc21`, the Potency was inconclusive: 29.1 µM [inhibitor, single point]. With `COc1ccc(Cc2nc3ccc(C(=O)NCCc4ccncc4)cc3o2)cc1OC` the Potency was inconclusive: 25.9 µM [inhibitor, partial curve, poor fit]. With `CC(C)(C)OC(=O)NCc1ccc(CNC(=O)c2nc[nH]c2C(=O)N2CCN(c3ccccc3)CC2)cc1` the Potency was inconclusive: 11.6 µM [inhibitor, partial curve, poor fit]. With `COc1ccc(C(=O)NC(C(=O)NCCc2ccc3c(c2)OCCO3)C(C)C)cc1` (stereo unspecified) the Potency was “inactive”. For `CC(=O)c1cccc(NC(=S)NC(=O)c2cncc(Br)c2)c1`, the Potency was inconclusive: 6.51 µM [activator, partial curve]. For `CCc1c(C)nc(SCC(=O)N2CCCCC2C)[nH]c1=O` (stereo unspecified), the Potency was inconclusive: 20.6 µM [activator, single point]. With `Cc1cccc(OCc2nnc(SCC(=O)O)n2-c2ccccc2)c1` the Potency was “inactive”. With `O=C(COc1ccccc1)N1CCN(c2nnc(-c3ccccc3)c3ccccc23)CC1` the Potency was inconclusive: 23.1 µM [inhibitor, single point]. For `O=C1NN(c2ccc(Cl)cc2)C(=O)/C1=C\c1ccc(-c2cccc(C(=O)O)c2)o1`, the Potency was inconclusive: 29.1 µM [activator, single point]. For `Cc1ccc(C(=O)OCC(=O)Nc2ccccc2C(F)(F)F)cc1S(=O)(=O)N1CCCCC1`, the Potency was inconclusive: 23.1 µM [inhibitor, single point]. With `COc1ccc(-c2csc(NC(=O)c3cccc(N4C(=O)CCC4=O)c3)n2)cc1C` the Potency was “inactive”. For `CC(=O)Oc1ccc(N(C(C)=O)S(=O)(=O)c2ccc(Cl)cc2)c2ccccc12`, the Potency was active: 18.3 µM. For `CC(C)N(Cc1ccccc1)C(=O)COC(=O)c1ccc(O)cc1`, the Potency was inconclusive: 11.6 µM [activator, single point]. With `C=CCn1c(SCC(=O)c2[nH]c(C)c(C(=O)OCC)c2C)nc2scc(-c3ccc(OC)c(OC)c3)c2c1=O` the Potency was “inactive”. With `COc1ccc(-c2ccc3c(c2)S(=O)(=O)c2cccc(C(=O)N4CCN(c5ccc(Cl)cn5)CC4)c2C3=O)cc1OC` the Potency was inconclusive: 8.2 µM [inhibitor, partial curve, poor fit]. In the case of `C=CCNC(=O)c1ccccc1NC(=O)C1CCN(S(=O)(=O)c2ccc(SC)cc2)CC1`, the Potency is reported as “inactive”. With `Cc1ccc(C(=O)c2oc3ccccc3c2N)cc1` the Potency was inconclusive: 16.4 µM [activator, partial curve]. For `O=C(O)c1ccc(N/N=C/c2cc3cc4c(cc3nc2Cl)OCCO4)cc1`, the Potency was inconclusive: 0.651 µM [activator, full curve]. With `COc1ccc(NC(=O)/C(N=Nc2cc(S(=O)(=O)Nc3ccc(OC)cc3)ccc2OC)=C(\C)O)cc1` the Potency was “inactive”. For `Cc1cc(NC(=O)CSc2nc(C3CC3)nc3sc(C)c(C)c23)no1`, the Potency was inconclusive: 3.26 µM [inhibitor, partial curve, poor fit]. For `Cc1ccccc1-c1nnc(SCCC(=O)N2CCOCC2)o1`, the Potency was inconclusive: 20.6 µM [activator, single point]. For `NC(=O)CSc1nnc(NC(=O)c2ccc(Br)o2)s1`, the Potency was inconclusive: 20.6 µM [activator, single point]. With `O=C(NCc1nc2ccccc2[nH]1)C1=C[C@H](c2ccccc2)C[C@H](OCc2ccc(CO)cc2)O1` the Potency was active: 20.6 µM. With `O=c1c(-c2nc3ccccc3s2)cccn1Cc1ccc(Cl)cc1` the Potency was inconclusive: 23.1 µM [activator, partial curve]. With `O=C(CSc1ccccc1)NCCSCc1ccccc1` the Potency was inconclusive: 16.4 µM [activator, single point]. With `N/C(=N\OC(=O)c1cccc2ccccc12)c1ccc(Br)cc1` the Potency was inconclusive: 23.1 µM [inhibitor, single point]. With `Cc1ccc(-c2c3c(nc4sc(C(N)=O)c(N)c24)CCC3)cc1` the Potency was inconclusive: 18.4 µM [inhibitor, partial curve, poor fit]. With `N#CC1(NC(=O)CN2C(=O)c3ccc([N+](=O)[O-])cc3C2=O)CCCCC1` the Potency was inconclusive: 23.1 µM [activator, single point]. For `CC1C(=O)C(C)C(c2cccc(Br)c2)NC1c1cccc(Br)c1` (stereo unspecified), the Potency was “inactive”. In the case of `COc1ccc(NC(=O)CN(C)C(=O)c2ccc3ccccc3n2)cc1`, the Potency is reported as “inactive”. For `CCOC(=O)C1(N(CC)CC)Sc2cc(C)ccc2NC1=O` (stereo unspecified), the Potency was “inactive”. With `Cc1ccc(S(=O)(=O)N2CCC(C(=O)OCC(=O)N3CCCCC3C)CC2)cc1C` (stereo unspecified) the Potency was inconclusive: 5.17 µM [activator, single point]. With `COc1ccc(C(=O)CSc2ncn[nH]2)cc1OC` the Potency was inconclusive: 32.6 µM [activator, partial curve, poor fit]. With `O=C(CCC1CCCN(C(=O)c2ccc3c(c2)OCO3)C1)NCc1ccc(F)c(F)c1` (stereo unspecified) the Potency was “inactive”. With `CC(C)=NNc1nc2c(c(=O)n(C)c(=O)n2C)n1CCc1ccccc1` the Potency was “inactive”. With `Cc1ccc(C(=O)c2coc3ccc(O)c(CN4CCN(C)CC4)c23)cc1` the Potency was “inactive”. For `O=C(Nc1cccc(S(=O)(=O)N2CCCCC2)c1)c1ccccc1NS(=O)(=O)c1ccc(F)cc1`, the Potency was inconclusive: 3.26 µM [inhibitor, single point]. In the case of `C[C@H](CO)N1C[C@H](C)[C@@H](CN(C)S(=O)(=O)c2ccc(F)cc2)Oc2ccc(NC(=O)C3CC3)cc2C1=O`, the Potency is reported as inconclusive: 23.1 µM [inhibitor, single point]. With `Cc1cc(C)cc(Nc2ncnc3nc[nH]c23)c1` the Potency was inconclusive: 23.1 µM [activator, partial curve, poor fit]. In the case of `Cc1cc(C)c(NC(=O)COC(=O)c2cccc3c2C(=O)c2ccccc2C3=O)c(C)c1`, the Potency is reported as active: 13 µM. With `Cc1ccc(NC(=O)c2oc3ccc(S(=O)(=O)N4CCC5(CC4)OCCO5)cc3c2C)cc1C` the Potency was active: 6.51 µM. With `Cc1cc(C)nc(SCC(=O)Nc2ncc(C(F)(F)F)cc2Cl)n1` the Potency was “inactive”. For `O=C(c1ccccc1)N1CC(COc2ccccc2)OC(c2cccnc2)O1` (stereo unspecified), the Potency was inconclusive: 29.1 µM [activator, partial curve, poor fit]. In the case of `CCC(=O)N1CCN(c2nc(CC)nc3sc4c(c23)CCCC4)CC1`, the Potency is reported as inconclusive: 14.6 µM [inhibitor, partial curve]. With `COc1ccc(CNC(=O)C[C@H]2C[C@H](C(=O)N3CCCCC3)[C@@]3(CCc4ccccc4)c4[nH]c5cc(-c6ccco6)ccc5c4CCN3C2=O)cc1OC` the Potency was inconclusive: 5.17 µM [inhibitor, partial curve, poor fit]. With `CC1CCCN(C(=O)COC(=O)c2n[nH]c3ccccc23)C1` (stereo unspecified) the Potency was inconclusive: 9.2 µM [activator, partial curve]. In the case of `Cc1nnc(NC(=O)c2ccc(S(=O)(=O)C(F)F)cc2)s1`, the Potency is reported as inconclusive: 18.3 µM [activator, partial curve]. For `CCn1c(CC(=O)Nc2ccccc2F)nnc1SCC(=O)Nc1nncs1`, the Potency was “inactive”. In the case of `COCCNc1oc(/C=C/c2ccccc2OC)nc1S(=O)(=O)c1ccccc1`, the Potency is reported as active: 10.3 µM. For `Cc1cc(C(=O)CSc2nnc(N)s2)c(C)n1Cc1cccs1`, the Potency was inconclusive: 1.16 µM [activator, partial curve]. With `Cc1ccc(CSC2=Nc3ccccc3C3=NC(CCC(=O)NCc4ccco4)C(=O)N23)cc1` (stereo unspecified) the Potency was “inactive”. In the case of `CCN(c1cccc(C)c1)S(=O)(=O)c1ccc2c(c1)CCN2C(C)=O`, the Potency is reported as “inactive”. For `Cc1ccc(C(=O)Nc2ccc(F)c(S(=O)(=O)N3CCOCC3)c2)s1`, the Potency was inconclusive: 29.1 µM [inhibitor, single point]. In the case of `O=C(O)c1cccc(Nc2nc(-c3cc4ccccc4oc3=O)cs2)c1`, the Potency is reported as inconclusive: 16.4 µM [activator, partial curve]. For `CC1CCCCC12NC(=O)N(CC(=O)Nc1ccc3[nH]c(=O)[nH]c3c1)C2=O` (stereo unspecified), the Potency was inconclusive: 5.17 µM [activator, single point]. With `CCCNc1nc(C)cc(-c2cc(-c3ccccc3)on2)n1` the Potency was inconclusive: 29.1 µM [activator, single point]. With `CCCCOC(=O)Nc1ccc2c(C)cc(=O)oc2c1` the Potency was inconclusive: 5.8 µM [activator, partial curve]. In the case of `Cc1cccc(-c2cc3nc(-c4ccccc4)cc(=O)n3[nH]2)c1`, the Potency is reported as inconclusive: 2.06 µM [activator, full curve]. With `CN(Cc1ccc(F)cc1)C(=O)c1cc(COc2ccc(-n3cncn3)cc2)on1` the Potency was “inactive”. For `CCOC(=O)c1ccccc1NC(=O)COc1coc(CN2CCc3ccccc32)cc1=O`, the Potency was inconclusive: 29.1 µM [inhibitor, single point]. For `O=C(Nc1ccccc1)Nc1cccc(Cl)c1Cl`, the Potency was inconclusive: 18.4 µM [activator, partial curve]. With `COc1ccc2c(c1)CCc1c(C(=O)N3CCOCC3)noc1-2` the Potency was inconclusive: 14.6 µM [activator, partial curve]. For `Cc1ccc(NS(=O)(=O)c2c(C(=O)N3CCCCCC3)c(C)n(C)c2C)cc1C`, the Potency was “inactive”.
Potency means the concentration at half of the fitted maximal effect.
